{
  "source": "paper PMC7537955",
  "target": "T1, Flag-IKKi (UniProt Q14164)",
  "T1 sequence": "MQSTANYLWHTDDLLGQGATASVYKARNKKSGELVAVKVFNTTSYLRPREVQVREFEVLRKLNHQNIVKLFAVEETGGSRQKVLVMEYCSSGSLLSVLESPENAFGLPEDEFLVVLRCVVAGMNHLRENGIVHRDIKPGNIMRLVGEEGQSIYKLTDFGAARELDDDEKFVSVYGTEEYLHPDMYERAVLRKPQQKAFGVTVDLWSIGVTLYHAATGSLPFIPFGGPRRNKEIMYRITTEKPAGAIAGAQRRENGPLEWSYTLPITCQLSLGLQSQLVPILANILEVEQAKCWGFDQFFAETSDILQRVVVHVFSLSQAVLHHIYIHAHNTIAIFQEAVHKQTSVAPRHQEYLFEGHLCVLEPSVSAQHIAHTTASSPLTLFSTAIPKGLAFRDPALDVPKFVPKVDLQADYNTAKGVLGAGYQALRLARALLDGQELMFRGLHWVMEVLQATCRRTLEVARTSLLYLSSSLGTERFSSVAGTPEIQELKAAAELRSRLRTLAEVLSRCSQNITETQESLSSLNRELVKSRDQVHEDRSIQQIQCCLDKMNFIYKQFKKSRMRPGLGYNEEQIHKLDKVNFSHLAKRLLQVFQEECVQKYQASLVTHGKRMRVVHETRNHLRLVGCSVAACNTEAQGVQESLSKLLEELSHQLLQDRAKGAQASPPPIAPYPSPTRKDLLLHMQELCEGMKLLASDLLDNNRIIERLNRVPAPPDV",
  "assay": "co-IP",
  "note": "Results are given in words; binding and its absence hold for the method and conditions named. In cells and extracts the contact can be indirect. Where a sequence is shown, tags or fusion partners need not be part of it.",
  "data": [
    {"substance": "SARS-CoV-2 main protease (HA-M^pro) (enzyme)", "values": [
      {"measurement": "binding", "result": "no binding"}
    ]}
  ]
}
